According to the supplement of paper PMC8732350:
Where a name gives a salt, the structure may show the parent alone. ± gives the standard deviation of the averaged measurements. The list shows a part of the results. Repeats in this data set agree poorly, so a single value says little.

These compounds were tested on A549 (assay: surface PD-L1 immunofluorescence intensity relative to IFN-gamma-only control (ratio); higher = more PD-L1 expression). Conditions: 10 µM; exposure time 24 h; IFN-gamma 100 ng/mL.

Structure (SMILES)	surface PD-L1 immunofluorescence intensity
CCCC(C)C1(CC)C(=O)NC(=O)NC1=O (stereo not drawn) [Pentobarbital]	0.993
COP(=O)(OC)C(O)C(Cl)(Cl)Cl (stereo not drawn) [Trichlorfon]	0.872
C[C@]12C[C@H]3S[C@H]3C[C@@H]1CC[C@@H]1[C@@H]2CC[C@]2(C)[C@@H](O)CC[C@@H]12 [Epitiostanol]	1.01
CNC1CC(N)C(O)C(OC2OC(CO)C(O)C3OC4(OC(C(N)CO)C(O)C(O)C4O)OC23)C1O (stereo not drawn) [Hygromycin B]	0.97
Cn1cc(C2=C(c3cn(C4CCN(Cc5ccccn5)CC4)c4ccccc34)C(=O)NC2=O)c2ccccc21	1.28
Cc1ccc2cc3c(ccc4ccccc43)c3c2c1CC3 [3-Methylcholanthrene]	0.957
C=CCN1CC[C@]23c4c5ccc(O)c4O[C@H]2C(=O)CC[C@@]3(O)[C@H]1C5 [Naloxone hydrochloride]	1.07
CC[C@@H](C(=O)[C@@H](C)[C@@H](O)[C@H](C)[C@@H]1O[C@@H]([C@@H](CC)C(=O)O)CC[C@@H]1C)[C@H]1O[C@]2(C=C[C@@H](O)[C@]3(CC[C@@](C)([C@H]4CC[C@](O)(CC)[C@H](C)O4)O3)O2)[C@H](C)C[C@@H]1C [Salinomycin (Procoxacin)]	1.23
C(#CCN1CCCC1)CN1CCCC1 [Tremorine dihydrochloride]	1.1
OC(Cc1ccncc1)C(Cl)(Cl)Cl (stereo not drawn)	0.989
Cc1cccc(C)c1NC(=O)CN1CCCC1=O [Nefiracetam (Translon)]	1.02
CS(=O)(=O)Nc1ccc(Cc2noc(-c3ccc4[nH]cc(CCN)c4c3)n2)cc1	0.959
C[C@]12CCC(=O)C=C1C=C[C@@H]1[C@@H]2CC[C@@]2(C)[C@H]1CC[C@@]2(O)CCC(=O)O [Canrenoic acid potassium salt]	0.906
CCCC[N+]1(C)[C@@H]2C[C@@H](OC(=O)[C@H](CO)c3ccccc3)C[C@H]1[C@@H]1O[C@@H]12 (stereo partly drawn) [Butylscopolamine bromide (Scopolamine butylbromide)]	1.11
Cc1cccc(Cc2c[nH]cn2)c1C [Detomidine HCl]	1.12
N#CC(C#N)=Cc1ccc(O)c(O)c1 [AG 18 (Tyrphostin 23)]	0.94
CC(C)c1cc2c(c(O)c1O)[C@@]1(C(=O)O)CCCC(C)(C)[C@@H]1CC2 [Carnosic acid]	0.975
CC(C)c1cccc(C(C)C)c1O [Propofol]	1
C[C@]12CC[C@H](O)C[C@H]1CC[C@@H]1[C@@H]2CC[C@]2(C)[C@@H](C3=CC(=O)OC3)CC[C@]12O [Digitoxigenin]	1.01
CC12NC(Cc3ccccc31)c1ccccc12 (single isomer, unassigned; (+)) [(+)-MK 801 maleate]	0.954
CCC(Oc1ccc(Cl)cc1)C(=O)OC1C[C@H]2CC[C@@H](C1)N2C (stereo partly drawn) [SM-21 maleate]	1.13
CCCN1CCC[C@@H]2Cc3n[nH]cc3C[C@H]21 [(-)-Quinpirole hydrochloride]	1.04

Laid out differently: 2 of the compounds above.

| Structure (SMILES) | surface PD-L1 immunofluorescence intensity |
| --- | --- |
| C[C@]12C[C@H]3S[C@H]3C[C@@H]1CC[C@@H]1[C@@H]2CC[C@]2(C)[C@@H](O)CC[C@@H]12 [Epitiostanol] | 1.01 |
| C[C@]12CCC(=O)C=C1C=C[C@@H]1[C@@H]2CC[C@@]2(C)[C@H]1CC[C@@]2(O)CCC(=O)O [Canrenoic acid potassium salt] | 0.906 |

(more compounds)

Structure (SMILES)	surface PD-L1 immunofluorescence intensity
CN1C[C@H](CNC(=O)OCc2ccccc2)C[C@@H]2c3cccc4c3c(cn4C)C[C@H]21 [Metergoline]	1.03 ± 0.072
CC(=O)O[C@H]1CC[C@@]2(C)C(=CC[C@@H]3[C@@H]2CC[C@]2(C)C(=O)CC[C@@H]32)C1 [Dehydroisoandosterone 3-acetate]	0.984
O=C(NCNC(=O)NC1C(=O)NC(=O)N1CO)NC1C(=O)NC(=O)N1CO (stereo not drawn) [Imidurea]	0.99
O=[N+]([O-])c1ncc[nH]1 [Azomycin (2-Nitroimidazole)]	1
Oc1ccc2c3c1O[C@H]1[C@@H](O)CC[C@@]4(O)[C@@H](C2)N(CC2CCC2)CC[C@]314 [Nalbuphine hydrochloride]	0.939
CC1C=CC=CCCC=CC=CC=CC=CC(OC2OC(C)C(O)C(N)C2O)CC2OC(O)(CC(O)C(O)CCC(O)CC(O)CC(O)CC(=O)OC(C)C(C)C1O)CC(O)C2C(=O)O (stereo not drawn) [Nystatin (Mycostatin)]	1.09
C[C@]12CC[C@H](O)CC1=CC[C@@H]1[C@@H]2CC[C@]2(C)C(=O)CC[C@@H]12 [Dehydroepiandrosterone (DHEA)]	1.06
CC[C@@H](CO)NC(=O)[C@@H]1C=C2c3cccc4c3c(cn4C)C[C@H]2N(C)C1 [Methysergide maleate]	1.08
N#C[C@H](O[C@@H]1O[C@H](CO[C@@H]2O[C@H](CO)[C@@H](O)[C@H](O)[C@H]2O)[C@@H](O)[C@H](O)[C@H]1O)c1ccccc1 [Amygdalin]	1.05
CC(=O)N1CC[N+](C)(C)CC1 [4-Acetyl-1,1-dimethylpiperazinium iodide]	1.09
NC(C(=O)O)c1nn[nH]n1 (racemic) [(RS)-(Tetrazol-5-yl)glycine]	1.05
COc1ccc(CC2NCCc3cc(OC)c(OC)cc32)cc1OC (stereo not drawn) [Tetrahydropapaverine HCl]	1.04
c1ccc2c(c1)OCC(C1=NCCN1)O2 (stereo not drawn) [Idazoxan hydrochloride]	0.97 ± 0.084
CCC[C@@H]1CC2=CC(=O)CC[C@]2(C)[C@H]2CC[C@@]3(C)[C@@H](CC[C@@]3(O)CCC(=O)O)[C@H]12	0.944
COC1(C[S@+]([O-])c2ccccc2)CCN(CCc2c[nH]c3ccc(F)cc23)CC1	0.962
CC[N+]1(C)CCCC(OC(=O)C(O)(c2ccccc2)c2ccccc2)C1 (stereo not drawn) [Pipenzolate bromide]	1.01
Cc1nnc2n1-c1sc(CCC(=O)N3CCOCC3)cc1C(c1ccccc1Cl)=NC2	0.908
CC[C@@H](CO)NC(=O)[C@@H]1C=C2c3cccc4[nH]cc(c34)C[C@H]2N(C)C1 [Methylergometrine maleate]	1.01 ± 0.034
CCC1(C2=NCCN2)Cc2ccccc2O1 (stereo not drawn) [Efaroxan hydrochloride]	0.904
NC(N)=Nc1ccc2[nH]c3c(c2c1)C[C@@]1(O)[C@H]2Cc4ccc(O)c5c4[C@@]1(CCN2CC1CC1)[C@H]3O5 [GNTI dihydrochloride]	1.01
CCOC(=O)c1ncn2c1[C@@H]1CCCN1C(=O)c1cc(OC)ccc1-2	0.987
